Patent US8642620B2, “Heteroaryl-substituted amides comprising an unsaturated or cyclic linker group, and their use as pharmaceuticals” (Sanofi, priority 2005, dated 2014)
Some entries share one result that the patent states for a list of compounds. For at least one compound, name, drawing or mass did not settle the structure.

Target: eNOS promoter
Test: Activation of eNOS transcription (eNOS promoter-luciferase reporter gene assay)
Assay type: cell-based
Conditions: human endothelial cell line stably transfected with eNOS promoter-luciferase construct; 18 h incubation; EC50 determined graphically; read-out: EC50 values of transcription induction ratios (TIR)
Protocol: Activation of eNOS transcription was measured as described in detail by Li et al., “Activation of protein kinase C alpha and/or epsilon enhances transcription of the human endothelial nitric oxide synthase gene”, Mol. Pharmacol. 53 (1998) 630. Briefly, a 3.5 kB long fragment 5′ of the starting codon of the eNOS gene was cloned, sequenced and cloned in firefly luciferase expression plasmids to monitor activation of the eNOS promoter by reporter gene activity. A human endothelial cell line stable transfected and expressing this promoter-reporter construct was used for compound testing. Cells were incubated for 18 h with the compounds.
All compounds were dissolved in sterile dimethyl sulfoxide (DMSO). A final concentration of 0.5% DMSO in complete medium was allowed. Induction of reporter gene expression in these cells was measured using a standard luciferase assay system (Promega, Cat. No. E150) according to the manufacturer's instructions. Luciferase induction in cells incubated with compounds were compared to those incubated with solvent alone. The ratio of both activities (transcription induction ratio, TIR) was plotted as a function of compound concentration. Typically, TIR values started at low concentrations at a ratio of 1, indicating no compound effect, and extended up to a maximum TIR value TIR(max) which indicates the increase of the eNOS transcription. EC50 values of transcription induction ratios as a function of compound concentration were determined graphically.

| SMILES | EC50 [nM] |
| --- | --- |
| O=C1CNC(=O)N1C1CC1c1ccc(-c2ccc(F)c(F)c2)nc1 (stereo not drawn) [Example 19-1, 3-((E)-2-(6-(3,4-Difluorophenyl)pyridin-3-yl)cyclopropyl)imidazolidine-2,4-dione] | < 500 |
| O=C1CNC(=O)N1C1CC1c1ccc(-c2cccc(F)c2F)nc1 (stereo not drawn) [Example 16-1, 3-((E)-2-(6-(2,3-Difluorophenyl)pyridin-3-yl)cyclopropyl)imidazolidine-2,4-dione] | < 500 |
| O=C1CNC(=O)N1C1CC1c1ccc(-c2cccc(Cl)c2Cl)nc1 (stereo not drawn) [Example 17-2, 3-((E)-2-(6-(2,3-Dichlorophenyl)pyridin-3-yl)cyclopropyl)imidazolidine-2,4-dione] | < 500 |
| O=C1CNC(=O)N1C1CC1c1ccc(-c2ccc(F)cc2F)nc1 (stereo not drawn) [Example 14-2, (E)-3-(2-(6-(2,4-Difluorophenyl)pyridin-3-yl)cyclopropyl)imidazolidine-2,4-dione] | < 500 |
| Cc1ccc(-c2ccc(C3CC3N3C(=O)CNC3=O)cn2)s1 (stereo not drawn) [Example 40, 3-((E)-2-(6-(5-Methylthiophen-2-yl)pyridin-3-yl)cyclopropyl)imidazolidine-2,4-dione] | < 500 |
| N#Cc1cc(-c2ccc(C3CC3N3C(=O)CNC3=O)cn2)ccc1F (stereo not drawn) [Example 28, 3-((E)-2-(6-(3-cyano-4-fluorophenyl)pyridin-3-yl)cyclopropyl)imidazolidine-2,4-dione] | < 500 |
| O=C1CNC(=O)N1C1CC1c1ccc(-c2ccc3ncccc3c2)nc1 (stereo not drawn) [Example 25, 3-((E)-2-(6-(quinolin-6-yl)pyridin-3-yl)cyclopropyl)imidazolidine-2,4-dione] | < 500 |
| O=C1CNC(=O)N1C1CC1c1ccc(-c2ccc(F)c(Cl)c2)nc1 (racemic) [Example 15-1, 3-((E)-2-(6-(3-Chloro-4-fluorophenyl)pyridin-3-yl)cyclopropyl)imidazolidine-2,4-dione] | < 500 |
| Cc1cc(-c2ccc(C3CC3N3C(=O)CNC3=O)cn2)ccc1F (stereo not drawn) [Example 18-1, 3-((E)-2-(6-(4-Fluoro-3-methylphenyl)pyridin-3-yl)cyclopropyl)imidazolidine-2,4-dione] | < 500 |
